Patent US20090023697A1, “ANALGESIA METHOD” (Vernalis (R&D) Limited, priority 2003, published 2009)

System: male Wistar rats
Experiment: Tail flick latency (TFL) response to ip morphine: effect of sustained release neurosteroid on development of morphine tolerance

`CC(=O)[C@H]1CC[C@H]2[C@@H]3CC[C@H]4C[C@H](O)CC[C@]4(C)[C@H]3C(=O)C[C@]12C` [alphaxalone] was tested, and the “sedation observed during the course of the tolerance experiment” value (sc emulsions with morphine emulsion, alphadolone 250 mg/kg/day, alphaxalone 80 mg/kg/day) was “heavily sedated” and the “post treatment TFL values (6.4 mg/kg ip morphine, day 3) compared with vehicle treated controls” value (two days sc morphine emulsion plus sc emulsion of alphadolone 250 mg/kg/day or alphaxalone 80 mg/kg/day, Students t test) was “did not differ from those in vehicle treated controls”.
